The whole screen tested about 52,000 sequences, of which about 210 (0.4%) were called active.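 How the source made its calls: active means gene whose silencing raises cell survival under the drug, median off-target-corrected z-score across its silencing RNAs 2 or more; inactive means the rest.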 Some of the results follow.
Test: Resistance to Poly (ADP-Ribose) Polymerase inhibitor: Gene Identification via Genome-wide siRNA Screen
Conditions: mouse BRCA2 R2336H ES cells, olaparib, CellTiter-Glo viability; active compounds read high
Outline: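 Mouse BRCA2 R2336H ES cells were reverse-transfected with siRNA (20 nM final), treated at 48 h with 500 nM olaparib, and read by CellTiter-Glo after 72 h. Scores: MAD-based z per siRNA, median per gene, seed off-target correction.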

Row | Sequence | z-score
1 | CGCAGCAGGAAUCAGGAAUTT against AW550801 | inactive: 0.554
2 | GGUAGUGUCCCUGUAUUCCTT against Bok | inactive: 1.2
3 | GGAUCUUAUGCGAAGCCGCTT against C130098D09 | inactive: 0.175
4 | GGUUGGAGUUAUAGAUUUUTT against D5Bwg0860e | inactive: 1.81
5 | GGAACAGAAAACCAUAUAATT against 4933437K13Rik | inactive: -1.42
6 | GCUUAAGAAUCGAAAAGAGTT against AA792894 | inactive: -0.618
7 | GGAGUCAGUACUGUAAAAUTT against Rin2 | inactive: 0.119
8 | GGCACCUAUGAGGUUCUAUTT against Rgpr | inactive: -1.39
9 | CAUGAUCGAUACCAUCACATT against Adcy1 | inactive: -0.0474
10 | GCAUGAAUCGUGCGAAGAUTT against 9030612M13Rik | inactive: -1.3
11 | GGGAAGACAUGUGAAAAUGTT against Slc17a1 | inactive: -0.276
12 | GGAAGGGAGACAAAAUAUATT against 9630008K15Rik | inactive: -0.385
13 | GGAAAAGUUGGACUUUUAUTT against 2610034K17Rik | inactive: 0.256
14 | GGACAAGUGUGUUGAUGGUTT against 6430510M02Rik | inactive: -0.366
15 | GGCUAGGUAAUCACUGGGUTT against 9230118O15Rik | inactive: 0.56
16 | GGGCGGAGAAUGAAGCUUUTT against D930035B09Rik | inactive: 1.55
17 | GGGAACAAGGUCAUCUCCUTT against Olfr1444 | inactive: 2.25
18 | GGCUUCUGUGGGAAUCACATT against Ednrb | inactive: -2.13
19 | GCCACAAUACUUCCAGCAATT against Tnr | inactive: -0.918
20 | GGCUUACCUUAUUGUGAUCTT against Psen2 | inactive: -0.929
21 | GCCUACAAAACAACACUACTT against LOC434439 | inactive: 0.33
22 | GGAGUUAUCCGUAUUAGUGTT against BC019206 | inactive: -1.44
23 | GGAGAAUGAGUGGUAUCUGTT against Msh2 | inactive: 0.0286
24 | GCCUCUACUUUACCAAGUUTT against Olfr883 | inactive: -0.309
25 | CCAUUUACCAUAAGUUCUUTT against 1810009O10Rik | inactive: 0.0703
26 | CGACGAGGAAUAACCUCUCTT against Myh6 | inactive: 0.524

Row | Sequence | z-score
27 | GGAAAACAUACCAUGUAUGTT against Zfp322a | inactive: 0.0362
28 | GGGUUCUCUACCUCAUCCUTT against Uts2r | inactive: 2.15
29 | GGAAAUGGGAUUUAAGGAATT against 6030441H18Rik | inactive: -1.87
30 | GGCCCUUUAUUCUUAAAAGTT against Gpr88 | inactive: 0.622
31 | CGUGGACUCUAUAAUCAACTT against BC019977 | inactive: 0.281
32 | GGACACCUACCAAAAGUUATT against Cd9 | inactive: 1.06
33 | GGCCAAAUAACCUAGUAAUTT against Bxdc1 | inactive: 0.111
34 | GGAUGCUGGUUCUUUUGGUTT against 4921513O04 | inactive: -1.26
35 | GGAAGAGCAACUGCUACAATT against Rnase1 | inactive: 0.294
36 | GGCUUCUCCAAAGCUUUAGTT against Dkkl1 | inactive: 0.341
37 | CGAACGAUUGAAGAUUUCUTT against Nat3 | inactive: -0.848
38 | CGCAAGGAAAAAAAGUAAGTT against Slc16a13 | inactive: 0.665
39 | GGAGAAGCAGUUUCUGAAUTT against Bsn | inactive: 0.187
40 | CGAAGAGUUUAAGUCCAUGTT against Bnip1 | inactive: -0.148
41 | GCCAGAGCGGAUUAUUGGATT against Cbx1 | inactive: -1.24
42 | GGAUUUCAAAAACCACGUGTT against Snx1 | inactive: 1.02
43 | GGAGUAGGAACAAAAAUUGTT against Polb | inactive: -2.43
44 | GGACUGUUUUGUCUUGAAGTT against LOC331392 | inactive: -0.0809
45 | CCAGUACGAACUCUUCCGUTT against Prkcbp1 | inactive: 1.18
46 | GGCUUUGAGUAUCAAAAUATT against Pfpl | inactive: 0.44
47 | CCAAUACUACAUAAUGUCUTT against Abcc12 | inactive: 0.329
48 | GCCCAUUGUUACCUUGUACTT against AV071179 | inactive: 0.643
49 | GGACCCUCCAGGUUACAUUTT against Ptpn18 | inactive: -1.02
50 | GGUCCUCAAAUGAAAAAGATT against Wbscr24 | inactive: -0.911
51 | CCCGAACCUUAGUAAAUGUTT against Psmd8 | inactive: -2.87
52 | GCAGACUUUGUUUGACAACTT against Hip1 | inactive: 0.237

Looked up above.
GGACCCUCCAGGUUACAUUTT against Ptpn18 – z-score: inactive: -1.02
GGACAAGUGUGUUGAUGGUTT against 6430510M02Rik – z-score: inactive: -0.366
GGAGUAGGAACAAAAAUUGTT against Polb – z-score: inactive: -2.43

Source: PubChem BioAssay AID1347423 (Functional Genomics Laboratory (NCATS/FGL), 2020)
